Data as given in PubChem BioAssay AID1347423 (Functional Genomics Laboratory (NCATS/FGL), 2020).
About 210 (0.4%) of roughly 52,000 sequences were called active.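 How the source made its calls: active means gene whose silencing raises cell survival under the drug, median off-target-corrected z-score across its silencing RNAs 2 or more; inactive means the rest.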 Some of the results follow.

Assay: Resistance to Poly (ADP-Ribose) Polymerase inhibitor: Gene Identification via Genome-wide siRNA Screen
Conditions: mouse BRCA2 R2336H ES cells, olaparib, CellTiter-Glo viability; stronger effect = higher value
In short: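 Mouse BRCA2 R2336H ES cells were reverse-transfected with siRNA (20 nM final), treated at 48 h with 500 nM olaparib, and read by CellTiter-Glo after 72 h. Scores: MAD-based z per siRNA, median per gene, seed off-target correction.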

Sequence | z-score
GGCUGUAUUUUGUAUUGUCTT against 2810002N01Rik | inactive: 0.855
GCUGCUUGCUGACCUCCUATT against Olfr522 | inactive: -1.98
CCGCAUGGAGCAUCUAAUATT against Tuft1 | inactive: 0.109
CGAGGUGGCUACAGAUCAATT against DXBwg1396e | inactive: 0.207
GCACACCUAGAAACAACCGTT against Mfap3l | inactive: -0.028
GCUCUAGGAAUUCCUCACUTT against Bambi | inactive: 0.378
GGAAAAGAGAGAAAAUGUUTT against D130059P03Rik | inactive: -0.673
CCUCGUAUUAGAUGAUGCATT against Snrpe | inactive: -3.24
GCCAAGUCCCGACAAGUAGTT against Rpl26 | inactive: -3.08
GGGUGUACAUUUUUCUUGUTT against 1700024B05Rik | inactive: 1.9
GCCCGCAUUGCCUUUUGAATT against Rai2 | inactive: -0.286
GCUUCGAGUCAUAGGUUUATT against Gm316 | inactive: -0.291
CCGAAUUUCUGCAUUUAACTT against Cnbp1 | inactive: 1.09
GGCUUAGUCAACUUGAAAATT against Atp5s | inactive: -0.608
GGAGGAACAGAAGAAACUCTT against 1110017O22Rik | inactive: 0.314
GGAAAACAGGAAAAUCCAUTT against Olfr1076 | inactive: 1.75
CCAUGUAUCAAUGAUGAUGTT against C6 | inactive: -0.139
GGAUAACCUUCUCUGGAGATT against Fbxw7 | inactive: 0.826
GGGUCAAAGCCCAUGGCAATT against Hbb-y | inactive: 1.29
CCAGAAACGAUGCAUUCAUTT against Olfr124 | inactive: 0.448
GCCAGAUGGAUCGAAAGAUTT against Numa1 | inactive: -0.514
GCGUGAGCUUAAGAAGCAATT against Leng8 | inactive: -1.75

Sequence | z-score
CGAGGUGGUCAUAAAGAACTT against Gas8 | inactive: -0.000513
UGUACUGAUACCUAUUUCATT against Olfr1251 | inactive: -0.774
GGUACAGUGAUUGUACAACTT against Atrx | inactive: 0.751
GCAUGUCGUCUGAGAAAGUTT against Pgr | inactive: -0.535
GGAUGACUGUAUCUGUACUTT against Ttc3 | inactive: 0.145
GGCUGUAUCUCAUCUUUGATT against Cdc2a | inactive: -1.8
GGAUACAGAGCAGGAGAAATT against 4930539I12Rik | inactive: -0.358
GGUGUUGAUGUAAAAACACTT against Egf | inactive: -0.0405
GCUUCACUAAUGUUGGUCUTT against Olfr958 | inactive: 0.381
GGUAAAUCCUCUACCGCAUTT against D7Ertd458e | inactive: 0.912
CCUGUCGCCACGUGGAAUATT against D530030D03Rik | inactive: -1.75
GCUACAAGUGCCACAGAUATT against Doxl2 | inactive: 0.263
GGUGAUUGUCCGGUUCGGUTT against BC003277 | inactive: 0.17
CCUGGAUGGUCAUAUUAAGTT against Lats2 | inactive: -0.119
GGCUUCGUGGCAAAGUCAUTT against Sucla2 | inactive: 0.365
GGUGUUAAUUGUAGCAGGGTT against Olfr920 | inactive: 0.932
GCAUUCGGAAGAGUCAUGUTT against Hnf4g | inactive: -1.05
CGGAUAAGCGGAUCUUUGUTT against Cad | inactive: 0.133
GGAACAAGUGGUAUUCCCGTT against 2610319K07Rik | inactive: -0.889
AUACGAUUUUUGUACUGCUTT against Defcr4 | inactive: 0.493
AAAAUCGUCAGAUCAAUCATT against Olfr698 | inactive: -0.909
GCAUUUAAUGGCAUUACUGTT against Gm414 | inactive: 0.219

Sequence | z-score
GGCCAUUAUGGACAUGAAUTT against Zcchc7 | inactive: 0.883
GGUUUGGUAAGUCAUCUUATT against Dapp1 | inactive: 1.21
GGACAGAGUUUUCAUUUUGTT against Rptn | inactive: 0.179
GGAUGCACAUAUUCAAGCCTT against Gm1395 | inactive: -0.134
GGACACAAGGUCGCCAUCUTT against Tcf3 | inactive: 0.766
GGCUCACAGGACCUAUUUCTT against E330026B02Rik | inactive: -1.52
GGAGCUCUCAUCCUACUAUTT against Eif4ebp3 | inactive: -0.0385
CCUGGAUAGUCGAUCCACUTT against Mesp1 | inactive: 0.584
CCUAUGAGGAUAUGUGGAUTT against Adm2 | inactive: -0.641
GGUGAUAGUCCACGAGGUUTT against Mbc2 | inactive: -1.31
GGUUUUCCGAGGUUUCAAGTT against Azgp1 | inactive: 1.28
GGGAGAAGGUGGAAAUACUTT against Hdgfrp3 | inactive: -1.78
GGAUUUUCUUGACAAGCCATT against Rnf146 | inactive: 0.82
GGAAAAAAUUAAAGAGCACTT against Gcl | inactive: 0.609
GCAACGUGGUCAUCAAUCUTT against Ndufa9 | inactive: 2.26
GGAAAUCAGAGAGAGGUAUTT against D330024H06Rik | inactive: -0.275
GCAUUGUCCGAGGUUUAUUTT against 1300010A20Rik | inactive: 1.33
GCUGUAUGCCUGUUUAGUGTT against E130201N16Rik | inactive: 0.603
GGCUUCCUGAUUCAAGAUGTT against Gzmd | inactive: 0.093
GCAGCAUACAUAAUGUAACTT against C030048B08Rik | inactive: -0.142
CCACUACUCGCCUUGGAAUTT against Slc25a11 | inactive: -0.963
CGGUAACUUUGUCGUUUAGTT against 4930544G11Rik | inactive: 0.528

Nothing new here: an excerpt of the list.
Sequence | z-score
GGAUACAGAGCAGGAGAAATT against 4930539I12Rik | inactive: -0.358
GGUGUUGAUGUAAAAACACTT against Egf | inactive: -0.0405
